The chains are these.
T1: PRRT2-HA (full length PRoline Rich Transmembrane protein 2 with HA tag fused at C terminus) (UniProt E9PUL5)
T1 sequence: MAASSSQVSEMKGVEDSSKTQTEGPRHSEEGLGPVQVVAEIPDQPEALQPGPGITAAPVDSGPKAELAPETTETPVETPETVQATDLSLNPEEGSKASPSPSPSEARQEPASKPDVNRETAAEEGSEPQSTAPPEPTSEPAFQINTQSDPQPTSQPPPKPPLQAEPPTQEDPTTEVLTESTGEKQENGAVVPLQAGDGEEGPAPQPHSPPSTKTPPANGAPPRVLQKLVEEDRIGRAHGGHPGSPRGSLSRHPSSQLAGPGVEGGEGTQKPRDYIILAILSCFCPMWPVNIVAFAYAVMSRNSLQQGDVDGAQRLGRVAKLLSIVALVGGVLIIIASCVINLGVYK

Chains of the proteins cited; added tags and fusions are not shown.
UniProt Q7TSJ2: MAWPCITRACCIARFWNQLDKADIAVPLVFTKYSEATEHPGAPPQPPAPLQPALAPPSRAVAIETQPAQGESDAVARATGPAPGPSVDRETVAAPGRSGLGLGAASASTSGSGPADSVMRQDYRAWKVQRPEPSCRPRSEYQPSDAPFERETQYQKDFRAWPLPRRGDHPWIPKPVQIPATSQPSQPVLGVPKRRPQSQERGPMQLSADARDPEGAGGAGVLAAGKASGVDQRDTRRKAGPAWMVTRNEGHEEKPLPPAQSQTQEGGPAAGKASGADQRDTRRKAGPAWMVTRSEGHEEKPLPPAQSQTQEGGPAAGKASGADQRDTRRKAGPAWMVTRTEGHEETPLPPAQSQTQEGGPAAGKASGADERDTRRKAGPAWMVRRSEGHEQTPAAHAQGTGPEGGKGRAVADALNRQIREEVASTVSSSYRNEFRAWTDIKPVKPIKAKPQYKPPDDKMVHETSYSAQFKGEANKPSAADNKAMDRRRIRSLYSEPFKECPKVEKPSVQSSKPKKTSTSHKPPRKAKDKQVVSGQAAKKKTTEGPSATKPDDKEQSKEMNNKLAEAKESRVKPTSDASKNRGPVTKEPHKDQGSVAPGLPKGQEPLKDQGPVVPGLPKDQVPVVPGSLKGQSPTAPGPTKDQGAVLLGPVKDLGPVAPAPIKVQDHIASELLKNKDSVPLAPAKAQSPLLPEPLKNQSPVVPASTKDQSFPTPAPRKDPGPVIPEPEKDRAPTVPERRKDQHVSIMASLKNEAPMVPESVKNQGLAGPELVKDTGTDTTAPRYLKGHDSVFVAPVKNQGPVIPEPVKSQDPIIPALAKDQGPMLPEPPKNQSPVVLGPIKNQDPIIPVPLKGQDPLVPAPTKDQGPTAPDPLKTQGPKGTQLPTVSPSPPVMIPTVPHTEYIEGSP
UniProt G5E829: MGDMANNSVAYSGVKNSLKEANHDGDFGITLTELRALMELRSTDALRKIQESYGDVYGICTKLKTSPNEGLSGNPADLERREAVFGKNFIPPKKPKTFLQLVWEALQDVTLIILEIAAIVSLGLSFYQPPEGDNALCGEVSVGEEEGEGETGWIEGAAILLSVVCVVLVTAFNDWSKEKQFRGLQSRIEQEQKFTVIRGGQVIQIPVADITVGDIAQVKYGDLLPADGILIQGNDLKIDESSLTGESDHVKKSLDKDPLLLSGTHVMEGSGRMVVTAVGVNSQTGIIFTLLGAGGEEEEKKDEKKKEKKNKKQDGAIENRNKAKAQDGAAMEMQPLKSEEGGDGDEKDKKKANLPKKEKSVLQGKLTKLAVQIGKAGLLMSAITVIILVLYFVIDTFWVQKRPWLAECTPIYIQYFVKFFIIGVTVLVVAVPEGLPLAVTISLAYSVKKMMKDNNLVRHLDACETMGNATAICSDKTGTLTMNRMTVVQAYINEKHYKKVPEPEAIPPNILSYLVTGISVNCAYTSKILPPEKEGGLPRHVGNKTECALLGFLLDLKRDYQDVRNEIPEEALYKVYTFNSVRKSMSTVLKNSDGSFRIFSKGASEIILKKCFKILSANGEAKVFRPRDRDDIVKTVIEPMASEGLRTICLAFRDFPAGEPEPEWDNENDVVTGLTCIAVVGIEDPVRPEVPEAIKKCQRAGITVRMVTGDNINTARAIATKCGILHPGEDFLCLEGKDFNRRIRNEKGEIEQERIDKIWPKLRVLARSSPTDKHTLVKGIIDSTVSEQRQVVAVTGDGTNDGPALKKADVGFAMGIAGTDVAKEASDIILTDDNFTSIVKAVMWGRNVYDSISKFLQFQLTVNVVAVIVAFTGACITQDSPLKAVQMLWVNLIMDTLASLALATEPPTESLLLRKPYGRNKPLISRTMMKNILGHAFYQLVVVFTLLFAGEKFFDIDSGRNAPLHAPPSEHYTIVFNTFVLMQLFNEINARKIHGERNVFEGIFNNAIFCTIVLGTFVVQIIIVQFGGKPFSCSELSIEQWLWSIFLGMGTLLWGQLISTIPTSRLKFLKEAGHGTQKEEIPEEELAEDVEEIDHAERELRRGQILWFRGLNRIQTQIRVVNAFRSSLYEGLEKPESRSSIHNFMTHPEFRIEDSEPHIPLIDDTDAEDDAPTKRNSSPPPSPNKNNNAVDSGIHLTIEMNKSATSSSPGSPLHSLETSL
UniProt Q91YE6: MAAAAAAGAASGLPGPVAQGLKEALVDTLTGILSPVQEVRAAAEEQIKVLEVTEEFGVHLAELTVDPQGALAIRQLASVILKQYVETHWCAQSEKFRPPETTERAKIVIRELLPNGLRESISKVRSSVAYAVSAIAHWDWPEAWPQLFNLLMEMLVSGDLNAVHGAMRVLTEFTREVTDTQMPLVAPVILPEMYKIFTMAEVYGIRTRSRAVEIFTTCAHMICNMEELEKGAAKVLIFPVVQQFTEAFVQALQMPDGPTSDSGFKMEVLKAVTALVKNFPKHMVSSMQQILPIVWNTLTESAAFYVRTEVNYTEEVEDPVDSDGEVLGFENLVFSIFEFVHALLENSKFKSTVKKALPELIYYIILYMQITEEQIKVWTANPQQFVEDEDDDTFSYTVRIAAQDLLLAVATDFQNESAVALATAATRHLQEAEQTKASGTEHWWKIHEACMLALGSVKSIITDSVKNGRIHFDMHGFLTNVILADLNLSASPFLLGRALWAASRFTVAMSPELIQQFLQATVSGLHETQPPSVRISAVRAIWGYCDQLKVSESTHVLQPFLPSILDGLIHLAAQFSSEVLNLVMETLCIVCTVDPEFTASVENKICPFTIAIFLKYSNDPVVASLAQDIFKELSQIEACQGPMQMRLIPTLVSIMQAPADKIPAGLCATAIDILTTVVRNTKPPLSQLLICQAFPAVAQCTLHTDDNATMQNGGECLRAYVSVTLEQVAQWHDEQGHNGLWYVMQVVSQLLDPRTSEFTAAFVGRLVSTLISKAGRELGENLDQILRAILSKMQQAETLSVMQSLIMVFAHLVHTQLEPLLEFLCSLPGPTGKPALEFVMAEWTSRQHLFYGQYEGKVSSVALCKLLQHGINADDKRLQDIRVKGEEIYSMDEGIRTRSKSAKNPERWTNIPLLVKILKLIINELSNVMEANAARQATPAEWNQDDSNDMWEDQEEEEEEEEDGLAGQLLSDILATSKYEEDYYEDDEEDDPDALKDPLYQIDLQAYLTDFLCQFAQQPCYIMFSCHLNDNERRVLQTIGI
UniProt O55143: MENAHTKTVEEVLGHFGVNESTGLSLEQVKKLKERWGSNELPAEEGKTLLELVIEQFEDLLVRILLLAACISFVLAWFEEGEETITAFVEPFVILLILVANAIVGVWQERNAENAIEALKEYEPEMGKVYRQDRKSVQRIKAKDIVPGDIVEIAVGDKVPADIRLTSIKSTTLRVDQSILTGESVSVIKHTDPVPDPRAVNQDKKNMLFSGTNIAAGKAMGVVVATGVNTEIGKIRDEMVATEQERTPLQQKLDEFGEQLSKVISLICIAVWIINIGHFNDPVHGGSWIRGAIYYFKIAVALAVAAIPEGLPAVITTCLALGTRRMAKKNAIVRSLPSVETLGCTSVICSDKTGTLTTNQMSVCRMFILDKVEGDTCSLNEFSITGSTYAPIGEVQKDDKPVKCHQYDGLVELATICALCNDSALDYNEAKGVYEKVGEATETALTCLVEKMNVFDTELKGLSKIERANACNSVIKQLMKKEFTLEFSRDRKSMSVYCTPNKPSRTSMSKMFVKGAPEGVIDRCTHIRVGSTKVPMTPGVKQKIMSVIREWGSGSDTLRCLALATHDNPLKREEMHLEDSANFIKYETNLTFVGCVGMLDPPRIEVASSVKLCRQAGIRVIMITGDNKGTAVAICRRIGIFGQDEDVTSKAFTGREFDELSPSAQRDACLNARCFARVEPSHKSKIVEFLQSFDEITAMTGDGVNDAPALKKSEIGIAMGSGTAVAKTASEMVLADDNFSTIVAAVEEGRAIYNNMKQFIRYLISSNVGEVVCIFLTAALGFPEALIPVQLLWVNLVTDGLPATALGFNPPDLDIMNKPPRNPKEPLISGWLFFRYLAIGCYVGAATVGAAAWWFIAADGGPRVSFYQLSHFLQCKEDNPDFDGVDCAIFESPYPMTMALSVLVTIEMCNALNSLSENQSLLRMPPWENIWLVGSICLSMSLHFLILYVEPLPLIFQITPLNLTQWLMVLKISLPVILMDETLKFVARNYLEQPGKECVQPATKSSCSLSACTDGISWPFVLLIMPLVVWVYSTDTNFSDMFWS
UniProt Q9EPL8: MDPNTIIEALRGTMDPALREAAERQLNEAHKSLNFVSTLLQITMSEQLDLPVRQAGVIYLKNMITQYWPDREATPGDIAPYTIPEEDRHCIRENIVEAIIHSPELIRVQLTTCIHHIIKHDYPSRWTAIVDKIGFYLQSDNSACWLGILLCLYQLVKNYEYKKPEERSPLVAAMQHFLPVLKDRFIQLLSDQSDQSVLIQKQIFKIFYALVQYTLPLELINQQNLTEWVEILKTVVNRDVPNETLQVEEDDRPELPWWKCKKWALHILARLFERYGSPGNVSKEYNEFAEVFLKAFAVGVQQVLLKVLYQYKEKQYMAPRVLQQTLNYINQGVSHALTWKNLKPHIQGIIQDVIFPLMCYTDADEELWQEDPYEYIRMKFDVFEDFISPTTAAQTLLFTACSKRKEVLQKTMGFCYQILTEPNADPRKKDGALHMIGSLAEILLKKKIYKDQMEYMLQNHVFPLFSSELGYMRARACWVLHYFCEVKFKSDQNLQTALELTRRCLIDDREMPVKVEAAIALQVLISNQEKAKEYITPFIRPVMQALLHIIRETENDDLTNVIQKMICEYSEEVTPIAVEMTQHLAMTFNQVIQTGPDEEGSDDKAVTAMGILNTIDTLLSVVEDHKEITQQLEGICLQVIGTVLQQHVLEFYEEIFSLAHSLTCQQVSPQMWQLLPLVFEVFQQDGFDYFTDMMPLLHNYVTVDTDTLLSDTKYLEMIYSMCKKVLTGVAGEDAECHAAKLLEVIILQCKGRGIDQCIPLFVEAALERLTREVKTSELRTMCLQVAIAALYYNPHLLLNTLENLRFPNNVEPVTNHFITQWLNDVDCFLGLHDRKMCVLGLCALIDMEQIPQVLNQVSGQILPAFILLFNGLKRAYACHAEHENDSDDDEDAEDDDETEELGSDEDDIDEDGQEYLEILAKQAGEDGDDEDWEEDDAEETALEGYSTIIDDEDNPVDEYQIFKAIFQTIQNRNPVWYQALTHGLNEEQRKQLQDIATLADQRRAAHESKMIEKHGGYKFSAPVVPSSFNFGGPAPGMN
UniProt Q6P5F9: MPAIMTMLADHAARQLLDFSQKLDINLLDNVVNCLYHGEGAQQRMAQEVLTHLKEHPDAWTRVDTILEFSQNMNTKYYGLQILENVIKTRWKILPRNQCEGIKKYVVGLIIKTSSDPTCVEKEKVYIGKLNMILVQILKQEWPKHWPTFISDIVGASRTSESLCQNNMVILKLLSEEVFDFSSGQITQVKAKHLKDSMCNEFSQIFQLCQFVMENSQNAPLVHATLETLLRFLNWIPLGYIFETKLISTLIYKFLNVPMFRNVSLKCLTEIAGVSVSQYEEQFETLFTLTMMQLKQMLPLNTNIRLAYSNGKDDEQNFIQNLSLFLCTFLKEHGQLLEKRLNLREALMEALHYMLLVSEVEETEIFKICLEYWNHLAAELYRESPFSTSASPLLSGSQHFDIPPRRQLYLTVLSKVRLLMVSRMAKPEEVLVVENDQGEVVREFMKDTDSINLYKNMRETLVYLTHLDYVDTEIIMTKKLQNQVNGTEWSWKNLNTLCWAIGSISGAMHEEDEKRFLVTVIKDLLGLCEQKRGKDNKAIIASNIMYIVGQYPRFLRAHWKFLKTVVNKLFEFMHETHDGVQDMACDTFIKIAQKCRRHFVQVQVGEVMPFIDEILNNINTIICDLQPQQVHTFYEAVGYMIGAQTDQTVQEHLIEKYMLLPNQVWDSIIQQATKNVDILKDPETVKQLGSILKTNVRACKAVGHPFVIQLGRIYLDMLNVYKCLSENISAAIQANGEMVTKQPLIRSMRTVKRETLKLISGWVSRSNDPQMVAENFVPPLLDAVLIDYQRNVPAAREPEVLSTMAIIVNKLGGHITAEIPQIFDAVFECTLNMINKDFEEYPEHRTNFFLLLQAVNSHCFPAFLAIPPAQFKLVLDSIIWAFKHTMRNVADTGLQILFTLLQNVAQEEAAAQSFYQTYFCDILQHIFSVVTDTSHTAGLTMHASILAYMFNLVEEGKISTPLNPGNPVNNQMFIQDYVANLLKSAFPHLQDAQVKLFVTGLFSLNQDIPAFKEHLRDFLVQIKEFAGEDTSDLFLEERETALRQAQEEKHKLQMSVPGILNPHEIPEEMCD

B1: Importin-5 (protein, UniProt Q8BKC5 1-1097)
chain: MAAAAAEQQQFYLLLGNLLSPDNVVRKQAEETYENIPGRSKITFLLQAIRNTTAAEEARQMAAVLLRRLLSSAFDEVYPALPSDVQTAIKSELLMIIQMETQSSMRKKICDIAAELARNLIDEDGNNQWPEGLKFLFDSVSSQNMGLREAALHIFWNFPGIFGNQQQHYLDVIKRMLVQCMQDQEHPSIRTLSARATAAFILANEHNVALFKHFADLLPGFLQAVNDSCYQNDDSVLKSLVEIADTVPKYLRPHLEATLQLSLKLCGDTNLNNMQRQLALEVIVTLSETAAAMLRKHTSLIAQTIPQMLAMMVDLEEDEDWANADELEDDDFDSNAVAGESALDRMACGLGGKLVLPMIKEHIMQMLQNPDWKYRHAGLMALSAIGEGCHQQMEGILNEIVNFVLLFLQDPHPRVRYAACNAVGQMATDFAPGFQKKFHEKVIAALLQTMEDQGNQRVQAHAAAALINFTEDCPKSLLIPYLDNLVKHLHSIMVLKLQELIQKGTKLVLEQVVTSIASVADTAEEKFVPYYDLFMPSLKHIVENAVQKELRLLRGKTIECISLIGLAVGKEKFMQDASDVMQLLLKTQTDFNDMEDDDPQISYMISAWARMCKILGKEFQQYLPVVMGPLMKTASIKPEVALLDTQDMENMSDDDGWEFVNLGDQQSFGIKTAGLEEKSTACQMLVCYAKELKEGFVEYTEQVVKLMVPLLKFYFHDGVRVAAAESMPLLLECARVRGPEYLTQMWHFMCDALIKAIGTEPDSDVLSEIMHSFAKCIEVMGDGCLNNEHFEELGGILKAKLEEHFKNQELRQVKRQDEDYDEQVEESLQDEDDNDVYILTKVSDILHSIFSSYKEKVLPWFEQLLPLIVNLICPQRPWPDRQWGLCIFDDIVEHCSPASFKYAEYFISPMLQYVCDNSPEVRQAAAYGLGVMAQFGGDNYRPFCTDALPLLVRVIQAPEAKTKENVNATENCISAVGKIMKFKPDCVNVEEVLPHWLSWLPLHEDKEEAVQTFSYLCDLIESNHPIVLGPNNTNLPKIFSIIAEGEMHEAIKHEDPCAKRLANVVRQVQTSGGLWTECIAQLSPEQQAAIQELLNSA
B2: Exportin-7 (protein, UniProt Q9EPK7 1-1087)
chain: MADHVQSLAQLENLCKQLYETTDTTTRLQAEKALVEFTNSPDCLSKCQLLLERGSSSYSQLLAATCLTKLVSRTNNPLPLEQRIDIRNYVLNYLATRPKLATFVTQALIQLYARITKLGWFDCQKDDYVFRNAITDVTRFLQDSVEYCIIGVTILSQLTNEINQADTTHPLTKHRKIASSFRDSSLFDIFTLSCNLLKQASGKNLNLNDESQHGLLMQLLKLTHNCLNFDFIGTSTDESSDDLCTVQIPTSWRSAFLDSSTLQLFFDLYHSIPPSFSPLVLSCLVQIASVRRSLFNNAERAKFLSHLVDGVKRILENPQSLSDPNNYHEFCRLLARLKSNYQLGELVKVENYPDVIRLIANFTVTSLQHWEFAPNSVHYLLSLWQRLAASVPYVKATEPHMLETYTPEVTKAYITSRLESVHIILRDGLEDPLEDTGLVQQQLDQLSTIGRCEYEKTCALLVQLFDQSAQSYQELLQSASASPMDIAVQEGRLTWLVYIIGAVIGGRVSFASTDEQDAMDGELVCRVLQLMNLTDSRLAQAGNEKLELAMLSFFEQFRKIYIGDQVQKSSKLYRRLSEVLGLNDETMVLSVFIGKVITNLKYWGRCEPITSKTLQLLNDLSIGYSSVRKLVKLSAVQFMLNNHTSEHFSFLGINNQSNLTDMRCRTTFYTALGRLLMVDLGEDEDQYEQFMLPLTAAFEAVAQMFSTNSFNEQEAKRTLVGLVRDLRGIAFAFNAKTSFMMLFEWIYPSYMPILQRAIELWYHDPACTTPVLKLMAELVHNRSQRLQFDVSSPNGILLFRETSKMITMYGNRILTLGEVPKDQVYALKLKGISICFSMLKAALSGSYVNFGVFRLYGDDALENALQTFIKLLLSIPHSDLLDYPKLSQSYYSLLEVLTQDHMNFIASLEPHVIMYILSSISEGLTALDTMVCTGCCSCLDHIVTYLFKQLSRSTKKRTTPLNRESDCFLHIMQQHPAMIQQMLSTVLNIIIFEDCRNQWSMSRPLLGLILLNEKYFSDLRNSIVNSQPPEKQQAMHLCFENLMEGIERNLLTKNRDRFTQNLSAFRREVNDSMKNSTYGVNSNDMMS
B3: Cullin-associated NEDD8-dissociated protein 1 (protein, UniProt Q6ZQ38 1-1230)
chain: MASASYHISNLLEKMTSSDKDFRFMATNDLMTELQKDSIKLDDDSERKVVKMILRLLEDKNGEVQNLAVKCLGPLVSKVKEYQVETIVDTLCTNMLSDKEQLRDISSIGLKTVIGELPPASSGSALAANVCKKITGRLTSAIAKQEDVSVQLEALDIMADMLSRQGGLLVNFHPSILTCLLPQLTSPRLAVRKRTIIALGHLVMSCGNIVFVDLIEHLLSELSKNDSMSTTRTYIQCIAAISRQAGHRIGEYLEKIIPLVVKFCNVDDDELREYCIQAFESFVRRCPKEVYPHVSTIINICLKYLTYDPNYNYDDEDEDENAMDADGGDDDDQGSDDEYSDDDDMSWKVRRAAAKCLDAVVSTRHEMLPEFYKTVSPALIARFKEREENVKADVFHAYLSLLKQTRPVQSWLCDPDAMEQGDTPLTMLQSQVPNIVKALHKQMKEKSVKTRQCCFNMLTELVNVLPGALTQHIPVLVPGIIFSLNDKSSSSNLKIDALSCLYVILCNHSPQVFHPHVQALVPPVVACVGDPFYKITSEALLVTQQLVKVIRPLDQPSSFDATPYIKDLFTCTIKRLKAADIDQEVKERAISCMGQIICNLGDNLGPDLSNTLQIFLERLKNEITRLTTVKALTLIAGSPLKIDLRPVLGEGVPILASFLRKNQRALKLGTLSALDILIKNYSDSLTAAMIDAVLDELPPLISESDMHVSQMAISFLTTLAKVYPSSLSKISGSILNELIGLVRSPLLQGGALSAMLDFFQALVVTGTNNLGYMDLLRMLTGPVYSQSTALTHKQSYYSIAKCVAALTRACPKEGPAVVGQFIQDVKNSRSTDSIRLLALLSLGEVGHHIDLSGQLELKSVILEAFSSPSEEVKSAASYALGSISVGNLPEYLPFVLQEITSQPKRQYLLLHSLKEIISSASVAGLKPYVENIWALLLKHCECAEEGTRNVVAECLGKLTLIDPETLLPRLKGYLISGSSYARSSVVTAVKFTISDHPQPIDPLLKNCIGDFLKTLEDPDLNVRRVALVTFNSAAHNKPSLIRDLLDSVLPHLYNETKVRKELIREVEMGPFKHTVDDGLDIRKAAFECMYTLLDSCLDRLDIFEFLNHVEDGLKDHYDIKMLTFLMLVRLSTLCPSAVLQRLDRLVEPLRATCTTKVKANSVKQEFEKQDELKRSAMRAVAALLTIPEAEKSPLMSEFQSQISSNPELAAIFESIQKDSSSTNLESMDTS
B4: Splicing factor 3B subunit 1 (protein, UniProt Q99NB9 1-1304)
chain: MAKIAKTHEDIEAQIREIQGKKAALDEAQGVGLDSTGYYDQEIYGGSDSRFAGYVTSIAATELEDDDDDYSSSTSLLGQKKPGYHAPVALLNDIPQSTEQYDPFAEHRPPKIADREDEYKKHRRTMIISPERLDPFADGGKTPDPKMNARTYMDVMREQHLTKEEREIRQQLAEKAKAGELKVVNGAAASQPPSKRKRRWDQTADQTPGATPKKLSSWDQAETPGHTPSLRWDETPGRAKGSETPGATPGSKIWDPTPSHTPAGAATPGRGDTPGHATPGHGGATSSARKNRWDETPKTERDTPGHGSGWAETPRTDRGGDSIGETPTPGASKRKSRWDETPASQMGGSTPVLTPGKTPIGTPAMNMATPTPGHIMSMTPEQLQAWRWEREIDERNRPLSDEELDAMFPEGYKVLPPPAGYVPIRTPARKLTATPTPLGGMTGFHMQTEDRTMKSVNDQPSGNLPFLKPDDIQYFDKLLVDVDESTLSPEEQKERKIMKLLLKIKNGTPPMRKAALRQITDKAREFGAGPLFNQILPLLMSPTLEDQERHLLVKVIDRILYKLDDLVRPYVHKILVVIEPLLIDEDYYARVEGREIISNLAKAAGLATMISTMRPDIDNMDEYVRNTTARAFAVVASALGIPSLLPFLKAVCKSKKSWQARHTGIKIVQQIAILMGCAILPHLRSLVEIIEHGLVDEQQKVRTISALAIAALAEAATPYGIESFDSVLKPLWKGIRQHRGKGLAAFLKAIGYLIPLMDAEYANYYTREVMLILIREFQSPDEEMKKIVLKVVKQCCGTDGVEANYIKTEILPPFFKHFWQHRMALDRRNYRQLVDTTVELANKVGAAEIISRIVDDLKDEAEQYRKMVMETIEKIMGNLGAADIDHKLEEQLIDGILYAFQEQTTEDSVMLNGFGTVVNALGKRVKPYLPQICGTVLWRLNNKSAKVRQQAADLISRTAVVMKTCQEEKLMGHLGVVLYEYLGEEYPEVLGSILGALKAIVNVIGMHKMTPPIKDLLPRLTPILKNRHEKVQENCIDLVGRIADRGAEYVSAREWMRICFELLELLKAHKKAIRRATVNTFGYIAKAIGPHDVLATLLNNLKVQERQNRVCTTVAIAIVAETCSPFTVLPALMNEYRVPELNVQNGVLKSLSFLFEYIGEMGKDYIYAVTPLLEDALMDRDLVHRQTASAVVQHMSLGVYGFGCEDSLNHLLNYVWPNVFETSPHVIQAVMGALEGLRVAIGPCRMLQYCLQGLFHPARKVRDVYWKIYNSIYIGSQDALIAHYPRIYNDDKNTYIRYDLDYIL

These are yes or no findings as the source states them, for the method shown. In cells and extracts the contact can be indirect. Here binding means that the protein was enriched with, or labelled near, the bait; the list need not be complete. Sequences can lack the tags named with a protein.

The assay deals with T1, PRRT2-HA (full length PRoline Rich Transmembrane protein 2 with HA tag fused at C terminus). Put plainly: affinity purification with mass spectrometry; PRRT2-HA or BAP-HA from COS-7 held on anti-HA agarose, washed, incubated overnight at 4 °C with total mouse brain extract in lysis buffer (1% Triton X-100, 150 mM NaCl, 50 mM Tris-HCl pH 7.4, 1 mM EDTA); eluted with HA peptide; bands between 95 and 130 kDa cut from the Coomassie gel, LC-MS/MS; only the target purified.
For the molecule “Microtubule-associated protein 6 (from UniProt Q7TSJ2 1-906)”, the binding entry is given as “binds”.
The result for “Plasma membrane calcium-transporting ATPase 1 (from UniProt G5E829 1-1220)” reads “binds”; that for Importin-9 (from UniProt Q91YE6 1-1041), “binds”; that for “Sarcoplasmic/endoplasmic reticulum calcium ATPase 2 (from UniProt O55143 1-1044)”, “binds”.
The result for Importin-7 (from UniProt Q9EPL8 1-1038) reads “binds”.
The result for Exportin-1 (from UniProt Q6P5F9 1-1071) reads “binds”; that for “AP-2 complex subunit alpha-1 (from UniProt P17426 1-977)”, “binds”; that for B1, “binds”.
Consider B2, for which the binding entry is recorded as “binds”.
Next, B3: “binds”; B4: “binds”.

The values above are taken from publication PMC7969623.
